These are yes or no findings as the source states them, for the method shown. In cells and extracts the contact can be indirect. Some results given as binding are weak or reduced against the parent protein; the word gives no strength. For some assays here: Sequences can lack the tags named with a protein.
Legend:
[1] = target: T1, ESM1 overexpressed in ovarian cancer cells (Flag-tagged) (human) (UniProt Q9NQ30); assay: co-IP; lysates of ovarian cancer cell lines (OV90, CAOV3, SKOV3) in IP lysis buffer, antibody overnight at 4 °C, protein A/G beads, Western blot; with or without ESM1 overexpression or knockdown; treatments: ginkgolic acid, simvastatin, Shikonin, UBA2 shRNA
T1 sequence: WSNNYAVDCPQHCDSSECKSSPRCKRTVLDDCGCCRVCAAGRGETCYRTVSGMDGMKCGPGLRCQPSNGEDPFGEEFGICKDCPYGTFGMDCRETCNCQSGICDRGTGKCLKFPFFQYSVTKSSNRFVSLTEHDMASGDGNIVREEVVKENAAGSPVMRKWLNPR

[2] = target: T2, Endothelial cell specific molecule 1 (ESM1), endogenous (human (endogenous in OV90 and CAOV3)) (UniProt Q9NQ30); assay: as above
T2 sequence: T1 sequence

binding [1]: binds | binding [2]: binds
B1: Ubiquitin-like modifier-activating enzyme 2 (UBA2), endogenous (enzyme, UniProt Q9UBT2 1-640)
chain: MALSRGLPRELAEAVAGGRVLVVGAGGIGCELLKNLVLTGFSHIDLIDLDTIDVSNLNRQFLFQKKHVGRSKAQVAKESVLQFYPKANIVAYHDSIMNPDYNVEFFRQFILVMNALDNRAARNHVNRMCLAADVPLIESGTAGYLGQVTTIKKGVTECYECHPKPTQRTFPGCTIRNTPSEPIHCIVWAKYLFNQLFGEEDADQEVSPDRADPEAAWEPTEAEARARASNEDGDIKRISTKEWAKSTGYDPVKLFTKLFKDDIRYLLTMDKLWRKRKPPVPLDWAEVQSQGEETNASDQQNEPQLGLKDQQVLDVKSYARLFSKSIETLRVHLAEKGDGAELIWDKDDPSAMDFVTSAANLRMHIFSMNMKSRFDIKSMAGNIIPAIATTNAVIAGLIVLEGLKILSGKIDQCRTIFLNKQPNPRKKLLVPCALDPPNPNCYVCASKPEVTVRLNVHKVTVLTLQDKIVKEKFAMVAPDVQIEDGKGTILISSEEGETEANNHKKLSEFGIRNGSRLQADDFLQDYTLLINILHSEDLGKDVEFEVVGDAPEKVGPKQAEDAAKSITNGSDDGAQPSTSTAQEQDDVLIVDSDEEDSSNNADVSEEERSRKRKLDEKENLSAKRSRIEQKEELDDVIALD

Source: PMC11077861
